Results published in paper PMC7933334, “The methyltransferase SETD2 couples transcription and splicing by engaging mRNA processing factors through its SHI domain” (Nature Communications, 2021).

Sequences of proteins named here, by UniProt entry; tags and fusion partners are left off. A change or cut given only in a name is not applied to a line headed by its entry.
UniProt Q9BYW2: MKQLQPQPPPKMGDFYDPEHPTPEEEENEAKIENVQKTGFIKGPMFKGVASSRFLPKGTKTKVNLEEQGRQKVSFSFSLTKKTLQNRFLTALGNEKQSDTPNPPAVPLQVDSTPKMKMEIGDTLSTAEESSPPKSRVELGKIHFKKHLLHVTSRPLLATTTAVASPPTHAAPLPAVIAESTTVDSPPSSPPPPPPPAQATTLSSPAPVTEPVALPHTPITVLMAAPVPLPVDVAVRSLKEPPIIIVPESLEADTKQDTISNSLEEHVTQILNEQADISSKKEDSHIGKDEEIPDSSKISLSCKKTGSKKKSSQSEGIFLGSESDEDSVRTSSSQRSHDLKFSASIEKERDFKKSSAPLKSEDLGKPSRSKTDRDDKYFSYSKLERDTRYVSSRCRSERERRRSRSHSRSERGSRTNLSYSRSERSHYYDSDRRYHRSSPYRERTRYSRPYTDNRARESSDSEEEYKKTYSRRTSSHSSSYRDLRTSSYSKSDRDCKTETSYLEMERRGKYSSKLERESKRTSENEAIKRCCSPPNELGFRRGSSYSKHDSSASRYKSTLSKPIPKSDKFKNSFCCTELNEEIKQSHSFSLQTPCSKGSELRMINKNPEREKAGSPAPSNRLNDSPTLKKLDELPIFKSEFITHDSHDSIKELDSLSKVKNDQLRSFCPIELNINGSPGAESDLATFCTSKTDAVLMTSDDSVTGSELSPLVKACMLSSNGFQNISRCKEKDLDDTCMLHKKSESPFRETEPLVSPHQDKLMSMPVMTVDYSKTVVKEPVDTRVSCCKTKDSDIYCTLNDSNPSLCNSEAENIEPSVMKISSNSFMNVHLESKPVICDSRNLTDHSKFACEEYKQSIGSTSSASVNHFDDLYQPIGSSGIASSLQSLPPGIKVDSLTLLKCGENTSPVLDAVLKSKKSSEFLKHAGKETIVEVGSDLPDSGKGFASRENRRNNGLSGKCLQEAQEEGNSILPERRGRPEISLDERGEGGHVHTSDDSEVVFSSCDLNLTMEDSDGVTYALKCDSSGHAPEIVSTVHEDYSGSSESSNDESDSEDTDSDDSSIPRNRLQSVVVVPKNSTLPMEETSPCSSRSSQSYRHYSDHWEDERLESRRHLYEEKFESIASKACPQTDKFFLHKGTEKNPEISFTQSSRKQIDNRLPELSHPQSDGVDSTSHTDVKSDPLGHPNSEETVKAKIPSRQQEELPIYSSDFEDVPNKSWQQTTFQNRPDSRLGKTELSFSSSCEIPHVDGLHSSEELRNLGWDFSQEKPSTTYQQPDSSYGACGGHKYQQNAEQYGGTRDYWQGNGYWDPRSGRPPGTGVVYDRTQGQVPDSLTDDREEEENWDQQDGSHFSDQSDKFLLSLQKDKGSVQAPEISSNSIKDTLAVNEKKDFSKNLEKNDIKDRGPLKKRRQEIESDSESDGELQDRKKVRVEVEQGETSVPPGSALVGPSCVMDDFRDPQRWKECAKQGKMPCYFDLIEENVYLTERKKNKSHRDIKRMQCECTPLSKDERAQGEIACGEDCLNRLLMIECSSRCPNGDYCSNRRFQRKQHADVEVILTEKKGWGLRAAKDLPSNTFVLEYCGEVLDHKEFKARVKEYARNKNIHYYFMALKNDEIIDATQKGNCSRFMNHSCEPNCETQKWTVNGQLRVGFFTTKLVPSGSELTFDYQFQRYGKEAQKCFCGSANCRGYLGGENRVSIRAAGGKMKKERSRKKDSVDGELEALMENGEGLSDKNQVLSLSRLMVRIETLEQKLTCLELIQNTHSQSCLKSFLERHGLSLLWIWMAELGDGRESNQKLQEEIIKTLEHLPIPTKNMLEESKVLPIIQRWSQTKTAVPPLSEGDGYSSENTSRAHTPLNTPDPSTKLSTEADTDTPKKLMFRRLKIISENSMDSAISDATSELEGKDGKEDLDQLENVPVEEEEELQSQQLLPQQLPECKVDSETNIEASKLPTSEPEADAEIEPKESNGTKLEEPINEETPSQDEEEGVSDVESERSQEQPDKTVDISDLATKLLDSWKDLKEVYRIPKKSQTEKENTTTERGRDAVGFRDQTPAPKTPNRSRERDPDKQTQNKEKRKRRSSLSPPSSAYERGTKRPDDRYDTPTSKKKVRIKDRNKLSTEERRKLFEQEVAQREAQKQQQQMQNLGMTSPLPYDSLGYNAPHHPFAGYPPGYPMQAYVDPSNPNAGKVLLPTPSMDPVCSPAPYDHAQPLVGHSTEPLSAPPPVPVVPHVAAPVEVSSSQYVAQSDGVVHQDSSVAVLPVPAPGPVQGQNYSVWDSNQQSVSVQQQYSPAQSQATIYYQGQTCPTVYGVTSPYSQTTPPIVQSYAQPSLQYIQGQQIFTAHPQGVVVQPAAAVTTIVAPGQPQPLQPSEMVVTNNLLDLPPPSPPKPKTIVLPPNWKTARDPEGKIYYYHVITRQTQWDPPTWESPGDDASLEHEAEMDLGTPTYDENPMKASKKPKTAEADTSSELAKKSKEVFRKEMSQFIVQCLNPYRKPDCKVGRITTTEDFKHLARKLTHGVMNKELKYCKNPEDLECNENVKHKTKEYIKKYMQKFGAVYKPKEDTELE

Target: Halo-FLAG-SETD2CΔSRI (human) (UniProt Q9BYW2)
Experiment: co-IP; Halo affinity purification of a Halo-tagged bait expressed in 293T (Magne HaloTag beads, AcTEV elution); endogenous partner detected by western blot; lysate with or without RNase where stated

- binding: binds
B1: hnRNP L (endogenous) (protein, UniProt P14866 1-589)
chain: MSRRLLPRAEKRRRRLEQRQQPDEQRRRSGAMVKMAAAGGGGGGGRYYGGGSEGGRAPKRLKTDNAGDQHGGGGGGGGGAGAAGGGGGGENYDDPHKTPASPVVHIRGLIDGVVEADLVEALQEFGPISYVVVMPKKRQALVEFEDVLGACNAVNYAADNQIYIAGHPAFVNYSTSQKISRPGDSDDSRSVNSVLLFTILNPIYSITTDVLYTICNPCGPVQRIVIFRKNGVQAMVEFDSVQSAQRAKASLNGADIYSGCCTLKIEYAKPTRLNVFKNDQDTWDYTNPNLSGQGDPGSNPNKRQRQPPLLGDHPAEYGGPHGGYHSHYHDEGYGPPPPHYEGRRMGPPVGGHRRGPSRYGPQYGHPPPPPPPPEYGPHADSPVLMVYGLDQSKMNCDRVFNVFCLYGNVEKVKFMKSKPGAAMVEMADGYAVDRAITHLNNNFMFGQKLNVCVSKQPAIMPGQSYGLEDGSCSYKDFSESRNNRFSTPEQAAKNRIQHPSNVLHFFNAPLEVTEENFFEICDELGVKRPSSVKVFSGKSERSSSGLLEWESKSDALETLGFLNHYQMKNPNGPYPYTLKLCFSTAQHAS

Results are given in words; binding and its absence hold for the method and conditions named. Binding seen in cells or lysates may run through a third protein. Binding can be weak; no strength is given.
